The values that follow come from patent publication US20250376461A1, “INDAZOLE DERIVATIVES FOR TREATING TRPM3-MEDIATED DISORDERS” (Katholieke Universiteit Leuven, priority 2022, published 2025).

Amino acid sequences for entries named in this document (tags omitted). Residues count along the entry.
UniProt J9SQF3, 1-1709 isoform 12: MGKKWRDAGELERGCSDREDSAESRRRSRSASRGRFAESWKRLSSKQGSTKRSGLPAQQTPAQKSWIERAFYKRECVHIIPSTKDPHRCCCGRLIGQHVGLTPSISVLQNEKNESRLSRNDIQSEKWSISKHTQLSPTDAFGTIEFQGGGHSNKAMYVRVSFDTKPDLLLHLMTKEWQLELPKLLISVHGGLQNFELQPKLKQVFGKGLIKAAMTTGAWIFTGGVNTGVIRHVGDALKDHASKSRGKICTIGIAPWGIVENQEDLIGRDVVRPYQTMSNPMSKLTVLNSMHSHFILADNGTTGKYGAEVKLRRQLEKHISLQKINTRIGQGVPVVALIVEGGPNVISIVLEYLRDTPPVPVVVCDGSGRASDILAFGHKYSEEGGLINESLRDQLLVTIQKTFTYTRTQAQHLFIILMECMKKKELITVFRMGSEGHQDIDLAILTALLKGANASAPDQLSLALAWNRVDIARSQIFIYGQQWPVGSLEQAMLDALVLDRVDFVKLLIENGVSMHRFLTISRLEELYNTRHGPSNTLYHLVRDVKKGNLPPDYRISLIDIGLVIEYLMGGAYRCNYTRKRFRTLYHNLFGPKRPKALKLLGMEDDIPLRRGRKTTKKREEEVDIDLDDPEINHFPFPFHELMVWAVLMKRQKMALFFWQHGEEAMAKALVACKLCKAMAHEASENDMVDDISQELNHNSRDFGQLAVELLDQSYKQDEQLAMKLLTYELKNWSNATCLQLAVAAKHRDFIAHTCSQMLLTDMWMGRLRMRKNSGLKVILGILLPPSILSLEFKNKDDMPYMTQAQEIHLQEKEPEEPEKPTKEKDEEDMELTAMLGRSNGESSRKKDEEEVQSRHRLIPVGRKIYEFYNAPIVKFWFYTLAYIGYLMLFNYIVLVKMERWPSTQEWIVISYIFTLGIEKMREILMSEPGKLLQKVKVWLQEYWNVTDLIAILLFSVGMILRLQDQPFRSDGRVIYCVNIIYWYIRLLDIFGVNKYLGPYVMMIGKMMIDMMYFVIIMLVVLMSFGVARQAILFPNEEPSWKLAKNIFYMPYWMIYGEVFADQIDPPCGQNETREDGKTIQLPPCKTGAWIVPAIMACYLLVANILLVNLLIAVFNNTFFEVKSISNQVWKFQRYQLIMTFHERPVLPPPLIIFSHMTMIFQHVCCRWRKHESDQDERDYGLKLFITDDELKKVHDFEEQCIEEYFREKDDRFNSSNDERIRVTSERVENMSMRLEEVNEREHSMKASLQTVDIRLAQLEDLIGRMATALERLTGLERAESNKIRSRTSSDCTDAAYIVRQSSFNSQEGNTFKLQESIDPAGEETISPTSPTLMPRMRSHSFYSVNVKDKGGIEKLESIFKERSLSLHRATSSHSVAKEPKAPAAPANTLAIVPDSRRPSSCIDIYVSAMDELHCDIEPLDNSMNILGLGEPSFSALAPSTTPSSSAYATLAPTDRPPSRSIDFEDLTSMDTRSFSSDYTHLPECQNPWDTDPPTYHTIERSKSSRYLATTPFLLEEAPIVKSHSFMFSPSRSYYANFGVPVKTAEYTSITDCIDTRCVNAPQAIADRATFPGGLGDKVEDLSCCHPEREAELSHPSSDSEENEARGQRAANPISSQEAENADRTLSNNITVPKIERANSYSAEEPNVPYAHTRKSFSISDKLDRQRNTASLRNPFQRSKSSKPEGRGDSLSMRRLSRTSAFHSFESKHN

Structures were worked out from names or drawings and are uncertain.

The target in the assay is mouse TRPM3α2 (mTRPM3) ion channel (Mus musculus, UniProt J9SQF3). Put plainly: TRPM3 ion channel driven Ca2+ uptake, Fluo-4 AM assay, mTRPM3alpha2 overexpressing flip-in HEK293 cells stimulated with pregnenolone sulfate (50 μM). The note with it: mTRPM3 overexpressing HEK293 cells stimulated with pregnenolone sulfate (50 μM), activity ranges A, B, C. As for the experimental part: Monitoring the TRPM3 Ion Channel Driven Ca2+ Uptake.
In order to monitor the inhibition of the mouse TRPM3α2 (mTRPM3) ion channel by the compounds of the invention, a cellular system making use of an mTRPM3alpha2 or hTRPM3 overexpressing cell line (flip-in HEK293) was used. The TRPM3 channel was stimulated/opened with Pregnenolone sulfate (PS) (50 μM) which results in Ca^2+ influx.
For mTRPM3, the intracellular Ca^2+ was measured with a Calcium responsive dye, Fluor-4 AM ester (Invitrogen). Cells were cultured until a confluence of 80-90%, washed with Versene (Invitrogen) and detached from the surface by a short incubation with 0.05% Trypsin (Invitrogen). The trypsination process was stopped by the addition of complete cell culture medium (DMEM, glutamax, 10% FCS, NEAA, Pen-Strep). Cells were collected and resuspended in Krebs buffer without Calcium at RT.
Prior the cell seeding (±2000 cells/well into a black, 384 well plate (Greiner)) the diluted compound was added in the assay plate, together with the PS dissolved in Krebs buffer containing Calcium. […] Directly after cell addition the plates were read on an Envision fluorescence reader (Perkin Elmer) by an Excitation of 485 nm and emission at 535 nm.
Channel inhibition was calculated compared to a non-PS stimulated control versus a condition stimulated with PS (50 μM) with vehicle. The ability of the compounds of the invention to inhibit this activity was determined as: Percentage inhibition=[1−((RFU determined for sample with test compound present−RFU determined for sample with positive control inhibitor) divided by (RFU determined in the presence of vehicle−RFU determined for sample with positive control inhibitor))]*100.
The activities of the Example compounds cpd 001-262 tested are depicted in the table below. All tested compounds show an activity in the Fluo-4 AM assay. The activity ranges A, B and C refer to IC50 values in the Fluo-4 AM assay as follows: “A”: IC50<1 μM; “B”: 1 μM≤IC50≤20 μM and “C”: IC50>20 μM.
The compound `Cc1ncsc1COc1ccc2nn(C)c(C(=O)NCC(C)(C)N3CCOCC3)c2c1` showed an IC50 of 1 to 20 µM. As to `Cn1nc2ccc(OCc3cccnc3C(F)(F)F)cc2c1C(=O)NC(C)(CO)C(N)=O` (single isomer, unassigned), the IC50 is less than 1 µM.

Compound `C[C@H](NC(=O)c1c2cc(OCC3CC3)ccc2nn1C)C(N)=O` came in with an IC50 of 1 to 20 µM.

On to `Cn1nc2ccc(OCc3ccccc3)cc2c1C(=O)NCC(C)(C)N1CCOCC1`, for which the IC50 was more than 20 µM.

As for `Cn1nc2ccc(OCc3ccccn3)cc2c1C(=O)N[C@H](CO)C(N)=O`, the IC50 lay in the range of 1 to 20 µM.

A word on the IC50: it is the concentration that inhibits the measured activity by half.
